Measured values as given in the supplement of paper PMC7125110.
± gives the standard error. Many entries were measured with a wide error.

B1: glmS ribozyme (parent)
chain: AUAAAAGCGCCAGAACUACAGAAAUGUAGUUGACGAGGAGGAGGUUUAUCGAAUUUUCGGCGGAUGCCUCCAAA

Variants of: B1
Assay: self-cleavage kobs at 640 uM GlcN6P; higher = faster cleavage; RNA array
Settings: with glucosamine-6-phosphate
Procedure, shortened: (§1)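 On sequenced MiSeq chips, barcoded ribozyme variants were made in situ by E. coli RNA polymerase and followed at 37 °C through a hybridised Cy3 probe. Glucosamine-6-phosphate was flowed in at 40 μM to 10 mM in HEPES/KCl/Mg(OAc)2 buffer. Exponential fits to normalised per-tile medians gave kobs, and weighted Michaelis–Menten fits gave kcat and KM.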

| Variant | self-cleavage kobs at 640 uM GlcN6P |
| --- | --- |
| C68A C71U | 1.6e-05 ± 1.3e-05 s⁻¹ |

Variants of: B1
Assay: self-cleavage kobs at 160 uM GlcN6P; higher = faster cleavage; RNA array
Settings: with glucosamine-6-phosphate
Procedure, shortened: as §1

| Variant | self-cleavage kobs at 160 uM GlcN6P |
| --- | --- |
| A6C A14G | 3.52e-05 ± 2.9e-05 s⁻¹ |
| A6C C10A G32A G51A A52G A53G G59C G63U C68A | 3.58e-05 ± 2.8e-05 s⁻¹ |
| A6U A64G | 1.83e-05 ± 1.4e-05 s⁻¹ |
| A6U C70U | 3.03e-05 ± 1.6e-05 s⁻¹ |
| A6U C71U | 2.04e-05 ± 1.2e-05 s⁻¹ |
| C10A A12U G29A A39G A52G C67G | 0.000292 ± 0.00016 s⁻¹ |
| C10G U54A C58G G62C C67G | 4.94e-05 ± 2.9e-05 s⁻¹ |
| C11G C67G C70G | 4.19e-05 ± 2.1e-05 s⁻¹ |
| C11U G29C | 2.04e-05 ± 1.6e-05 s⁻¹ |
| C11U G59U | 1.87e-05 ± 1.2e-05 s⁻¹ |
| A12C C70A | 2.38e-05 ± 2.2e-05 s⁻¹ |
| A12C G44U | 1.8e-05 ± 1.4e-05 s⁻¹ |
| A12G C70G | 2e-05 ± 1.8e-05 s⁻¹ |
| A12G C71G | 2.28e-05 ± 1.7e-05 s⁻¹ |
| A12G U45G U54G | 1.42e-05 ± 1.2e-05 s⁻¹ |
| A12G U47A | 2.15e-05 ± 1.3e-05 s⁻¹ |
| A12G U56G | 1.62e-05 ± 9.7e-06 s⁻¹ |
| A12U A64U | 2.07e-05 ± 1e-05 s⁻¹ |
| A12U C67U | 0.00118 ± 0.00093 s⁻¹ |
| G13A C16G | 2.34e-05 ± 2.2e-05 s⁻¹ |
| G13U C71G | 3.58e-05 ± 2.3e-05 s⁻¹ |
| G13U U31C C50G G63U | 3.48e-05 ± 2.2e-05 s⁻¹ |
| A14C A15U | 2.44e-05 ± 1.9e-05 s⁻¹ |
| A14U C34A C50G U54G C71G | 2.92e-05 ± 1.5e-05 s⁻¹ |
| A14U U45C | 3.26e-05 ± 1.7e-05 s⁻¹ |
| A15C C50U G51A G62U U69C | 2.5e-05 ± 1.7e-05 s⁻¹ |
| A15C U31C C68G | 1.87e-05 ± 1.8e-05 s⁻¹ |

| Variant | self-cleavage kobs at 160 uM GlcN6P |
| --- | --- |
| A15U C16U U49A C70G | 2.45e-05 ± 1.8e-05 s⁻¹ |
| C16G C71A | 2.84e-05 ± 1.5e-05 s⁻¹ |
| C16G U30C | 2.69e-05 ± 2.1e-05 s⁻¹ |
| C16G U46C | 2.84e-05 ± 2e-05 s⁻¹ |
| C16U A39G A42U U47A | 3.84e-05 ± 3.7e-05 s⁻¹ |
| C16U U57A C70A | 2.66e-05 ± 2.3e-05 s⁻¹ |
| G29C G62C C68G | 2.68e-05 ± 2.3e-05 s⁻¹ |
| G29U C50A G51U C58A | 2.99e-05 ± 1.9e-05 s⁻¹ |
| G29U G37A | 2.11e-05 ± 1.1e-05 s⁻¹ |
| G29U U49A U57C C70G | 6.44e-05 ± 3.6e-05 s⁻¹ |
| U30A G41U | 2.29e-05 ± 1.5e-05 s⁻¹ |
| U30A U69G C71A | 4.06e-05 ± 2.3e-05 s⁻¹ |
| U30C U56A | 1.91e-05 ± 1.1e-05 s⁻¹ |
| U30G U55G | 0.00062 ± 0.00033 s⁻¹ |
| U30G U56A C68G | 3.46e-05 ± 2.3e-05 s⁻¹ |
| U31A C67G | 4.89e-05 ± 2.8e-05 s⁻¹ |
| U31C U65G | 2.53e-05 ± 1.9e-05 s⁻¹ |
| U31G A52G | 2.72e-05 ± 1.7e-05 s⁻¹ |
| U31G U45A A52G | 2.31e-05 ± 1.8e-05 s⁻¹ |
| G32A G44U C67U | 1.85e-05 ± 1.4e-05 s⁻¹ |
| G32U C67U | 1.62e-05 ± 1.5e-05 s⁻¹ |
| A33G G37U U47G C68A | 2.67e-05 ± 1.8e-05 s⁻¹ |
| C34G G38A C58A C68G | 3.28e-05 ± 2.5e-05 s⁻¹ |
| G35U G37C U56G | 0.00126 ± 0.0012 s⁻¹ |
| G37A C50G | 2.23e-05 ± 2.1e-05 s⁻¹ |
| G37A C67A | 2.13e-05 ± 1.6e-05 s⁻¹ |
| G37A G66U | 2.22e-05 ± 1.5e-05 s⁻¹ |

| Variant | self-cleavage kobs at 160 uM GlcN6P |
| --- | --- |
| G37C | < 1e-05 s⁻¹ |
| G38U C50G A64G | 3.08e-05 ± 2.2e-05 s⁻¹ |
| A39C U65A | 1.43e-05 ± 9.7e-06 s⁻¹ |
| G41C A42G | 1.72e-05 ± 1.6e-05 s⁻¹ |
| G41U U47G A53U | 2.45e-05 ± 1.6e-05 s⁻¹ |
| U45A C67G | 4.11e-05 ± 2.1e-05 s⁻¹ |
| A48C A53G | 2.6e-05 ± 1.5e-05 s⁻¹ |
| A48C U55A | 2.46e-05 ± 2.4e-05 s⁻¹ |
| A48U U65G C67A C70A | 4.72e-05 ± 2.7e-05 s⁻¹ |
| U49A C50U C67A C68G C71A | 5.48e-05 ± 3.2e-05 s⁻¹ |
| C50A C58U C67G | 3.86e-05 ± 1.9e-05 s⁻¹ |
| C50A C70U | 1.63e-05 ± 1.2e-05 s⁻¹ |
| C50U C71G | 2.05e-05 ± 1.5e-05 s⁻¹ |
| G51U C68G | 2.51e-05 ± 1.3e-05 s⁻¹ |
| A52C A53U C67U C68U | 2.83e-05 ± 2.3e-05 s⁻¹ |
| A53G U57A | 2.97e-05 ± 2.7e-05 s⁻¹ |
| A53U U65C | 1.75e-05 ± 1.6e-05 s⁻¹ |
| C58G C67A | 3.21e-05 ± 1.7e-05 s⁻¹ |
| C58U C70A | 1.96e-05 ± 1.8e-05 s⁻¹ |
| G62A C70G | 2.17e-05 ± 2e-05 s⁻¹ |
| A64G U69G | 2.38e-05 ± 1.5e-05 s⁻¹ |
| G66C C71G | 2.19e-05 ± 1.9e-05 s⁻¹ |
| G66U U69G | 2.8e-05 ± 2.8e-05 s⁻¹ |
| C67A C70G | 1.68e-05 ± 1.6e-05 s⁻¹ |
| C67A U69A | 3.93e-05 ± 2.2e-05 s⁻¹ |
| C68G C70U | 1.63e-05 ± 1.5e-05 s⁻¹ |

For convenience, part of the list above.

| Variant | self-cleavage kobs at 160 uM GlcN6P |
| --- | --- |
| G32U C67U | 1.62e-05 ± 1.5e-05 s⁻¹ |
| A33G G37U U47G C68A | 2.67e-05 ± 1.8e-05 s⁻¹ |
| C34G G38A C58A C68G | 3.28e-05 ± 2.5e-05 s⁻¹ |
| G35U G37C U56G | 0.00126 ± 0.0012 s⁻¹ |
| G37A C50G | 2.23e-05 ± 2.1e-05 s⁻¹ |
| G37A C67A | 2.13e-05 ± 1.6e-05 s⁻¹ |
| G37A G66U | 2.22e-05 ± 1.5e-05 s⁻¹ |
| G37C | < 1e-05 s⁻¹ |
| G38U C50G A64G | 3.08e-05 ± 2.2e-05 s⁻¹ |
| A39C U65A | 1.43e-05 ± 9.7e-06 s⁻¹ |
| G41C A42G | 1.72e-05 ± 1.6e-05 s⁻¹ |
| G41U U47G A53U | 2.45e-05 ± 1.6e-05 s⁻¹ |
| U45A C67G | 4.11e-05 ± 2.1e-05 s⁻¹ |
| A48C A53G | 2.6e-05 ± 1.5e-05 s⁻¹ |
| A48C U55A | 2.46e-05 ± 2.4e-05 s⁻¹ |
| A48U U65G C67A C70A | 4.72e-05 ± 2.7e-05 s⁻¹ |
| U49A C50U C67A C68G C71A | 5.48e-05 ± 3.2e-05 s⁻¹ |
| C50A C58U C67G | 3.86e-05 ± 1.9e-05 s⁻¹ |
| C50A C70U | 1.63e-05 ± 1.2e-05 s⁻¹ |
| C50U C71G | 2.05e-05 ± 1.5e-05 s⁻¹ |
| G51U C68G | 2.51e-05 ± 1.3e-05 s⁻¹ |
| A52C A53U C67U C68U | 2.83e-05 ± 2.3e-05 s⁻¹ |
| A53G U57A | 2.97e-05 ± 2.7e-05 s⁻¹ |
| A53U U65C | 1.75e-05 ± 1.6e-05 s⁻¹ |
| C58G C67A | 3.21e-05 ± 1.7e-05 s⁻¹ |
| C58U C70A | 1.96e-05 ± 1.8e-05 s⁻¹ |
| G62A C70G | 2.17e-05 ± 2e-05 s⁻¹ |
| A64G U69G | 2.38e-05 ± 1.5e-05 s⁻¹ |
| G66C C71G | 2.19e-05 ± 1.9e-05 s⁻¹ |
| G66U U69G | 2.8e-05 ± 2.8e-05 s⁻¹ |

Variants of: B1
Assay: self-cleavage kobs at 2500 uM GlcN6P; higher = faster cleavage; RNA array
Settings: with glucosamine-6-phosphate
Procedure, shortened: as §1

| Variant | self-cleavage kobs at 2500 uM GlcN6P |
| --- | --- |
| C11G C67G C70G | 3.4e-05 ± 1.9e-05 s⁻¹ |
| G29U U49A U57C C70G | 6.66e-05 ± 3.8e-05 s⁻¹ |
| U30G U56A C68G | 1.71e-05 ± 1.1e-05 s⁻¹ |
| U49A C50U C67A C68G C71A | 3.82e-05 ± 3e-05 s⁻¹ |
| C50A C58U C67G | 3.87e-05 ± 2.1e-05 s⁻¹ |
| C58U C70A | 2.52e-05 ± 1.5e-05 s⁻¹ |
| C68G C70U | 1.74e-05 ± 1.5e-05 s⁻¹ |
| A6C A53U C70U | 2.08e-05 ± 1.7e-05 s⁻¹ |
| A6C C50G A64U | 2.94e-05 ± 2.4e-05 s⁻¹ |
| A6C G13U C50G | 3.72e-05 ± 2.9e-05 s⁻¹ |
| A6C U65G | 2.72e-05 ± 1.6e-05 s⁻¹ |
| A6G A52G | 2.63e-05 ± 1.4e-05 s⁻¹ |

Variants of: B1
Assay: self-cleavage kobs at 10000 uM GlcN6P; higher = faster cleavage; RNA array
Settings: with glucosamine-6-phosphate
Procedure, shortened: as §1

| Variant | self-cleavage kobs at 10000 uM GlcN6P |
| --- | --- |
| U49A C50U C67A C68G C71A | 1.87e-05 ± 1.8e-05 s⁻¹ |
